The supplement of paper PMC12542422
Structures can show the parent of a compound that is named as a salt. ± gives the standard deviation of the averaged measurements. Some of the results follow. Values are raw readings; no control value is given beside them.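 Across three biological replicates, HeLa cells were imaged for ribosome assembly using ENP1 staining (export block present or absent) or inducible tagged ribosomal protein reporters. Machine learning classified each cell's signal localization relative to DMSO controls. Hits exceeded the DMSO false-positive mean by five standard deviations and were then visually confirmed.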

Key:
[1] = test system: HeLa K (ENP1 immunofluorescence, +LMB); assay: fraction of cells with nucleolar or nucleolar/nucleoplasmic ENP1 signal (MainHitrate); higher = more cells with nucleolar/nuclear readout signal (for ENP1 -LMB: less RNAPI inhibition; for +LMB ENP1 and RP reporters: stronger nuclear/nucleolar retention, i.e. ribosome biogenesis defect); details: concentration: 1 µM; treatment time: 6 h; ENP1 +LMB; leptomycin B: 20 nM, last 1.5 h
[2] = test system: HeLa K (ENP1 immunofluorescence, no LMB); assay: as above; details: concentration: 1 µM; treatment time: 6 h; ENP1 -LMB; leptomycin B: none
HeLa RPS2-YFP reporter = assay: fraction of reporter-positive cells with nuclear (nucleolar or nucleolar/nucleoplasmic) RPS2-YFP (MainHitrate); higher = more cells with nucleolar/nuclear readout signal (for ENP1 -LMB: less RNAPI inhibition; for +LMB ENP1 and RP reporters: stronger nuclear/nucleolar retention, i.e. ribosome biogenesis defect); details: concentration: 1 µM; treatment time: 6 h
HeLa RPL29-GFP reporter = assay: fraction of reporter-positive cells with nuclear (nucleolar or nucleolar/nucleoplasmic) RPL29-GFP (MainHitrate); higher = more cells with nucleolar/nuclear readout signal (for ENP1 -LMB: less RNAPI inhibition; for +LMB ENP1 and RP reporters: stronger nuclear/nucleolar retention, i.e. ribosome biogenesis defect); details: concentration: 1 µM; treatment time: 6 h

| Compound | fraction [1] | fraction [2] | fraction of reporter-positive cells with nuclear (HeLa RPS2-YFP reporter) | fraction of reporter-positive cells with nuclear (HeLa RPL29-GFP reporter) |
| --- | --- | --- | --- | --- |
| COc1ccccc1N1CCN(CC(O)COc2cccc3ccccc23)CC1 (configuration not stated) [Naftopidil (Flivas)] | 0.115 ± 0.18 | 0.988 ± 0.022 | 0.121 ± 0.055 | 0.341 ± 0.19 |
| CCN(CC)CC#CCOC(=O)C(O)(c1ccccc1)C1CCCCC1 (configuration not stated) [Oxybutynin chloride] | 0.11 ± 0.14 | 0.9984 ± 0.0028 | 0.124 ± 0.091 | 0.192 ± 0.063 |
| CC#C[C@]1(O)CC[C@H]2[C@@H]3CCC4=CC(=O)CCC4=C3[C@@H](c3ccc(N(C)C)cc3)C[C@@]21C [Mifepristone (Mifeprex)] | 0.0618 ± 0.079 | 0.986 ± 0.025 | 0.0682 ± 0.049 | 0.23 ± 0.043 |
| CC(C)(OCc1nn(Cc2ccccc2)c2ccccc12)C(=O)O [Bindarit] | 0.0723 ± 0.088 | 0.984 ± 0.027 | 0.116 ± 0.07 | 0.19 ± 0.019 |
| CCC(=O)O[C@@H](O[P@](=O)(CCCCc1ccccc1)CC(=O)N1C[C@H](C2CCCCC2)C[C@H]1C(=O)O)C(C)C [Fosinopril sodium (Monopril)] | 0.0646 ± 0.087 | 0.992 ± 0.013 | 0.0989 ± 0.065 | 0.244 ± 0.074 |
| COc1ccc(CC2c3cc(OC)c(OC)cc3CC[N+]2(C)CCC(=O)OCCCCCOC(=O)CC[N+]2(C)CCc3cc(OC)c(OC)cc3C2Cc2ccc(OC)c(OC)c2)cc1OC (configuration not stated) [Atracurium besylate] | 0.0879 ± 0.11 | 0.9954 ± 0.008 | 0.129 ± 0.097 | 0.243 ± 0.085 |
| CC(C)NCC(O)COc1ccc(CCOCC2CC2)cc1 (configuration not stated) [Betaxolol hydrochloride (Betoptic)] | 0.0599 ± 0.076 | 0.993 ± 0.012 | 0.102 ± 0.06 | 0.244 ± 0.087 |
| CN1[C@@H]2CC[C@H]1C[C@@H](OC(=O)c1c[nH]c3ccccc13)C2 [Tropisetron] | 0.134 ± 0.2 | 0.988 ± 0.02 | 0.133 ± 0.041 | 0.373 ± 0.28 |
| CS(=O)(=O)OCCCCOS(C)(=O)=O [Busulfan (Myleran, Busulfex)] | 0.0686 ± 0.08 | 0.997 ± 0.0052 | 0.108 ± 0.077 | 0.223 ± 0.063 |
| CCCSc1nc(N[C@@H]2C[C@H]2c2ccc(F)c(F)c2)c2nnn([C@@H]3C[C@H](OCCO)[C@@H](O)[C@H]3O)c2n1 [Ticagrelor] | 0.0911 ± 0.14 | 0.986 ± 0.025 | 0.13 ± 0.12 | 0.218 ± 0.086 |
| CC[C@@]1(O)C(=O)OCc2c1cc1n(c2=O)Cc2cc3c(CN(C)C)c(O)ccc3nc2-1 [Topotecan HCl] | 0.178 ± 0.23 | 0.9945 ± 0.0096 | 0.0686 ± 0.03 | 0.174 ± 0.073 |
| CC1(C)S[C@@H]2[C@H](NC(=O)[C@H](N)c3ccccc3)C(=O)N2[C@H]1C(=O)O [Ampicillin sodium] | 0.125 ± 0.19 | 0.968 ± 0.055 | 0.124 ± 0.081 | 0.207 ± 0.093 |
| O=S(=O)(O)Oc1ccc(C(c2ccc(OS(=O)(=O)O)cc2)c2ccccn2)cc1 [Sodium Picosulfate] | 0.0454 ± 0.05 | 0.987 ± 0.023 | 0.1 ± 0.077 | 0.226 ± 0.069 |
| CCC(=O)OCC(=O)[C@@]1(OC(=O)CC)[C@@H](C)C[C@H]2[C@@H]3CCC4=CC(=O)C=C[C@]4(C)[C@@]3(F)[C@@H](O)C[C@@]21C [Betamethasone Dipropionate (Diprolene)] | 0.0835 ± 0.071 | 0.999 ± 0.0017 | 0.15 ± 0.069 | 0.266 ± 0.038 |
| Clc1ccc(C(c2ccccc2Cl)C(Cl)Cl)cc1 (configuration not stated) [Mitotane (Lysodren)] | 0.0758 ± 0.056 | 0.9993 ± 0.0011 | 0.119 ± 0.079 | 0.215 ± 0.058 |
| CN(C)CCC[C@@]1(c2ccc(F)cc2)OCc2cc(C#N)ccc21 [Escitalopram oxalate] | 0.0944 ± 0.13 | 0.957 ± 0.075 | 0.133 ± 0.12 | 0.218 ± 0.043 |
| CN1C(CCl)Nc2cc(Cl)c(S(N)(=O)=O)cc2S1(=O)=O (configuration not stated) [Methyclothiazide] | 0.0824 ± 0.11 | 0.992 ± 0.014 | 0.108 ± 0.079 | 0.218 ± 0.05 |
| CN(C)CC/C=C1/c2ccccc2Sc2ccc(Cl)cc21 [Chlorprothixene] | 0.0873 ± 0.11 | 0.9989 ± 0.0019 | 0.109 ± 0.052 | 0.218 ± 0.063 |
| CN[C@@H]1[C@H](O)[C@H](NC)[C@H]2O[C@@]3(O)C(=O)C[C@@H](C)O[C@H]3O[C@@H]2[C@H]1O [Spectinomycin  hydrochloride] | 0.148 ± 0.22 | 0.994 ± 0.01 | 0.108 ± 0.093 | 0.226 ± 0.086 |
| CC(C(=O)O)c1ccc(C(=O)c2cccs2)cc1 (configuration not stated) [Suprofen (Profenal)] | 0.134 ± 0.18 | 0.9982 ± 0.003 | 0.109 ± 0.077 | 0.206 ± 0.076 |
| COC(=O)[C@@H]1CC2=CC(=O)CC[C@]2(C)[C@@]23O[C@@H]2C[C@@]2(C)[C@@H](CC[C@@]24CCC(=O)O4)[C@H]13 [Eplerenone] | 0.0605 ± 0.059 | 0.999 ± 0.0018 | 0.107 ± 0.072 | 0.189 ± 0.083 |
| Cc1oncc1C(=O)Nc1ccc(C(F)(F)F)cc1 [Leflunomide] | 0.0906 ± 0.095 | 0.9988 ± 0.002 | 0.13 ± 0.092 | 0.212 ± 0.091 |
| Cc1cc(C)nc(NS(=O)(=O)c2ccc(N)cc2)n1 [Sulfamethazine] | 0.0674 ± 0.089 | 0.983 ± 0.03 | 0.0939 ± 0.059 | 0.172 ± 0.019 |

Part of the list above, with tabs.
Compound	fraction [1]	fraction [2]	fraction of reporter-positive cells with nuclear (HeLa RPS2-YFP reporter)	fraction of reporter-positive cells with nuclear (HeLa RPL29-GFP reporter)
CC(C)(OCc1nn(Cc2ccccc2)c2ccccc12)C(=O)O [Bindarit]	0.0723 ± 0.088	0.984 ± 0.027	0.116 ± 0.07	0.19 ± 0.019
CN1[C@@H]2CC[C@H]1C[C@@H](OC(=O)c1c[nH]c3ccccc13)C2 [Tropisetron]	0.134 ± 0.2	0.988 ± 0.02	0.133 ± 0.041	0.373 ± 0.28
